Results from PMC5374530.
Like-named read-outs stand apart in the source and are kept apart here. These are yes or no findings as the source states them, for the method shown. Binding seen in cells or lysates may run through a third protein. Some binding calls cover weakened binding; strength is not graded here. Values belong to the molecule of their own block, whether it stands above or below them.

The chains behind the UniProt entries cited, without tags or fusion partners. Where a name states a change or a piece, a line headed by the entry shows the natural chain unless it says otherwise.
UniProt Q04899: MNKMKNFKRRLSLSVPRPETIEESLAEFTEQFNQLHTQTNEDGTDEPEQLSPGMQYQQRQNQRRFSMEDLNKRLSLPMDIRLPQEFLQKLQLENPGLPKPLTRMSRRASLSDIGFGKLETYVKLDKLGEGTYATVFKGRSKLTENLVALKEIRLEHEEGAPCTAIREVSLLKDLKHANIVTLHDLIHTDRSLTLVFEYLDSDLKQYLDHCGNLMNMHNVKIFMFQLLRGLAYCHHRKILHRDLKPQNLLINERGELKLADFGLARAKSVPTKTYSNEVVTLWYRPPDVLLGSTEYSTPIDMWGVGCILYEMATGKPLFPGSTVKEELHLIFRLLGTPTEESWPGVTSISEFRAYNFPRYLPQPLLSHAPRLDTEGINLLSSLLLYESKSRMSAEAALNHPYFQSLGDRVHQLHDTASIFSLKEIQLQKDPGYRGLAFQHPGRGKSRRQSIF
UniProt P49023: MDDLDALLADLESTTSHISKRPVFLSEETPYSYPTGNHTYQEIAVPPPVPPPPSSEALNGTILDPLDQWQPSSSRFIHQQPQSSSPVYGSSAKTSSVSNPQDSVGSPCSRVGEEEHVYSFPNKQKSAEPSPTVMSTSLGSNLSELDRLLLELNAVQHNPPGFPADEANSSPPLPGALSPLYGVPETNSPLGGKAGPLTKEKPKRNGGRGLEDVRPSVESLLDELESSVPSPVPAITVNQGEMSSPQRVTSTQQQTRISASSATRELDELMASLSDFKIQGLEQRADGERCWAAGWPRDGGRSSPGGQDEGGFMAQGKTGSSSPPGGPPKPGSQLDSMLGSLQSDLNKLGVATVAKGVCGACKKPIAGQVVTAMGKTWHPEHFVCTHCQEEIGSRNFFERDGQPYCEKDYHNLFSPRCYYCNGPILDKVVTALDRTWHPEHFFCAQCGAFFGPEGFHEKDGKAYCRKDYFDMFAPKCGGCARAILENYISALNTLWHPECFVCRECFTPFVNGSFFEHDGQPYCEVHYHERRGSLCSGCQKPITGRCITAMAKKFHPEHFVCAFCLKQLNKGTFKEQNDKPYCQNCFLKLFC
UniProt Q9Y490: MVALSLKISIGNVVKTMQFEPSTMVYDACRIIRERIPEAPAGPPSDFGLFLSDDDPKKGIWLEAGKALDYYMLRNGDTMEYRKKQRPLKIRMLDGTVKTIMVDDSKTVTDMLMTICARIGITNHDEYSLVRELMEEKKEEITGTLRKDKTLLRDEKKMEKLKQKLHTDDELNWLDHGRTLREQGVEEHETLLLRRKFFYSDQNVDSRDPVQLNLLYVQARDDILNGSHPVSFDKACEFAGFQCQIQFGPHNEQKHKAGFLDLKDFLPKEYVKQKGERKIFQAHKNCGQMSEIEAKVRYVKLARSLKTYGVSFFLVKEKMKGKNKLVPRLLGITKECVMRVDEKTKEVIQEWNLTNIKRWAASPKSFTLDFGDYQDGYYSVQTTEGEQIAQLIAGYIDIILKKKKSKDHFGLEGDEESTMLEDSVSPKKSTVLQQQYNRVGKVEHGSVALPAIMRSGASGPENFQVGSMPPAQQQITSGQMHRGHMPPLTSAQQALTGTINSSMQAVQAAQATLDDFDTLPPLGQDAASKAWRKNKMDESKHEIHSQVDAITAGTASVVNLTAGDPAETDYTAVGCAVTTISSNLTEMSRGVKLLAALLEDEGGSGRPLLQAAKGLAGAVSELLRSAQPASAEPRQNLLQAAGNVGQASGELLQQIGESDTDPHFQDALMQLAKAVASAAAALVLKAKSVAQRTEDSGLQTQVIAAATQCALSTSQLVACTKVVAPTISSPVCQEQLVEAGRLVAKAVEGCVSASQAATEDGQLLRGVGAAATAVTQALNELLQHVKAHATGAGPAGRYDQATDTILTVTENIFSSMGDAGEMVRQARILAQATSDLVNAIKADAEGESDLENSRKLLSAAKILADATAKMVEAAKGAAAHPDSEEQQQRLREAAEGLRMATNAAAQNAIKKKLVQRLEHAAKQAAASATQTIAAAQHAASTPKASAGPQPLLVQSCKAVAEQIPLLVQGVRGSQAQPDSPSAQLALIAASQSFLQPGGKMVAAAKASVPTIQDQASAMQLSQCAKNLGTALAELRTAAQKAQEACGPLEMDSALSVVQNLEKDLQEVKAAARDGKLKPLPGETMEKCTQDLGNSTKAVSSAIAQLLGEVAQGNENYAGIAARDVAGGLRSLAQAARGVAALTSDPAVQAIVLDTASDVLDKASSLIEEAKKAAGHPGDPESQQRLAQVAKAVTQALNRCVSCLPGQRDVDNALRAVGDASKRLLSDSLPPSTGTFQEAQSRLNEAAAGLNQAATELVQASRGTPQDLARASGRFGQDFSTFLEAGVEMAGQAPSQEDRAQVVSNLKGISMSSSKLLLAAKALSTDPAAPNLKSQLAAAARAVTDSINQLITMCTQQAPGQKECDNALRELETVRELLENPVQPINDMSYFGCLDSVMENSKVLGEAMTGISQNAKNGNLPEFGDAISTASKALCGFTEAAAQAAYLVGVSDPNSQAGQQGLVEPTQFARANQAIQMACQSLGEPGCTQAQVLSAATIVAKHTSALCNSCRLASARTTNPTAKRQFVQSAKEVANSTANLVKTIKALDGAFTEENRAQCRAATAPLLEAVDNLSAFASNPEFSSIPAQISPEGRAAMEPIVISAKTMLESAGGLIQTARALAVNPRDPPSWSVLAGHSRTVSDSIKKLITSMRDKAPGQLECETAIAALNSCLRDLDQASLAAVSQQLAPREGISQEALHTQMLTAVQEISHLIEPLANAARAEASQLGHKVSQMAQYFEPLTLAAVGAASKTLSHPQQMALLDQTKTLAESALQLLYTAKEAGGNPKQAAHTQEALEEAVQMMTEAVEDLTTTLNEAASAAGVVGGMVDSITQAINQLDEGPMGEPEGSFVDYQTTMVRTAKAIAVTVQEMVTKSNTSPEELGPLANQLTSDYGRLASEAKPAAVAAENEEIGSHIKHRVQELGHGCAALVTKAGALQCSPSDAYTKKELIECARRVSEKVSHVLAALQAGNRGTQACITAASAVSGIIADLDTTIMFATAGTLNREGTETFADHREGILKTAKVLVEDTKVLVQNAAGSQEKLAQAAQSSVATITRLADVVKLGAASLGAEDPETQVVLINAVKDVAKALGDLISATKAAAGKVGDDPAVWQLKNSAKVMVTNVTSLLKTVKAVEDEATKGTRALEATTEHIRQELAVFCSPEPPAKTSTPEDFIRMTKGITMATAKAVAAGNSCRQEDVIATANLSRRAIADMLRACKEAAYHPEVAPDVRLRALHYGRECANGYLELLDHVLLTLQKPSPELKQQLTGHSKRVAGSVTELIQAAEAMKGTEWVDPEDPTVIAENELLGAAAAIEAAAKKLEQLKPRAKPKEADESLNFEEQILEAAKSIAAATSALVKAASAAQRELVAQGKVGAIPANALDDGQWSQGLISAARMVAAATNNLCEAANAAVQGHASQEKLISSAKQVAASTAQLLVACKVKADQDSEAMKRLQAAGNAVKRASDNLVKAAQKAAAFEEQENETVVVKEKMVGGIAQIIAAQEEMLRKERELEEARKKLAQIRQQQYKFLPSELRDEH
UniProt Q05397: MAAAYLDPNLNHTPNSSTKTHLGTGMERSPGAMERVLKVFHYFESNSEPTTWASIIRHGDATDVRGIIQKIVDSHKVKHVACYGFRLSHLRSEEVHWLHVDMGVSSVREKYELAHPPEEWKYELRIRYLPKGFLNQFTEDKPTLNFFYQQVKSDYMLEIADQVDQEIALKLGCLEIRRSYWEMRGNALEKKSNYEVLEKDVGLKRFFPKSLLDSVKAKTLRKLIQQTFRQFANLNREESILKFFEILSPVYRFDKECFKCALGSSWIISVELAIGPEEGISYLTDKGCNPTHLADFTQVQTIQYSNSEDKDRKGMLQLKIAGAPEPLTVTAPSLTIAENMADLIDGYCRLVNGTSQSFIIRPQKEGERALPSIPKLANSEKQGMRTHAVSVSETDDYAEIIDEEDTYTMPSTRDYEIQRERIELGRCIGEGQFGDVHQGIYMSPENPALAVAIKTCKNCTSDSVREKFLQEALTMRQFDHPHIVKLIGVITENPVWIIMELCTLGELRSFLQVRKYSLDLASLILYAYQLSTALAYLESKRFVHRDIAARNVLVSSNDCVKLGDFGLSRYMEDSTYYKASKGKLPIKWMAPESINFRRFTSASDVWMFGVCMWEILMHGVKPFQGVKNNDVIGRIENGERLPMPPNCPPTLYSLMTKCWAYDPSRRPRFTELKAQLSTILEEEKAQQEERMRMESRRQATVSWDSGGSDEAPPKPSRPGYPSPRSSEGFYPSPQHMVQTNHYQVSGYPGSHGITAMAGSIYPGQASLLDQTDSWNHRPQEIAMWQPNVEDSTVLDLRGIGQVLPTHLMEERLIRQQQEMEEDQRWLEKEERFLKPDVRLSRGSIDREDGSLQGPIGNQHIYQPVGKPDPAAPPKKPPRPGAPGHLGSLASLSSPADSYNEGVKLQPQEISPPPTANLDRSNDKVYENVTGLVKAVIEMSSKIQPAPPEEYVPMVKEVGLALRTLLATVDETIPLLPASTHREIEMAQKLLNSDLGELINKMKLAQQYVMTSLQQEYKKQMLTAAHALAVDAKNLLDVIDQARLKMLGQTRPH

Tests used:
Assay in all cases: pull-down; Strep-tagged PCTK3 expressed in HEK293T; lysates (TNE buffer: 20 mM Tris-HCl pH 7.5, 150 mM NaCl, 0.5% Nonidet P-40, 1 mM EDTA) incubated with Strep-Tactin Sepharose at 4 °C overnight; bound endogenous proteins detected by immunoblot
[1] = target: Strep-tagged PCTK3 wild type (PCTAIRE kinase 3/cyclin-dependent kinase 18) (mouse) (UniProt Q04899)
[2] = target: Strep-tagged PCTK3 S12D mutant (constitutively active) (mouse) (UniProt Q04899)
[3] = target: Strep-tagged PCTK3 wild type (PCTAIRE kinase 3/cyclin-dependent kinase 18) (mouse) (UniProt Q04899); remark: listed apart in the source

- binding [1]: no binding
Molecule: paxillin (from UniProt P49023 1-591)

- binding [3]: no binding
B1: tensin-2 (protein, UniProt Q63HR2 1-1409)
chain: MKSSGPVERLLRALGRRDSSRAASRPRKAEPHSFREKVFRKKPPVCAVCKVTIDGTGVSCRVCKVATHRKCEAKVTSACQALPPVELRRNTAPVRRIEHLGSTKSLNHSKQRSTLPRSFSLDPLMERRWDLDLTYVTERILAAAFPARPDEQRHRGHLRELAHVLQSKHRDKYLLFNLSEKRHDLTRLNPKVQDFGWPELHAPPLDKLCSICKAMETWLSADPQHVVVLYCKGNKGKLGVIVSAYMHYSKISAGADQALATLTMRKFCEDKVATELQPSQRRYISYFSGLLSGSIRMNSSPLFLHYVLIPMLPAFEPGTGFQPFLKIYQSMQLVYTSGVYHIAGPGPQQLCISLEPALLLKGDVMVTCYHKGGRGTDRTLVFRVQFHTCTIHGPQLTFPKDQLDEAWTDERFPFQASVEFVFSSSPEKIKGSTPRNDPSVSVDYNTTEPAVRWDSYENFNQHHEDSVDGSLTHTRGPLDGSPYAQVQRPPRQTPPAPSPEPPPPPMLSVSSDSGHSSTLTTEPAAESPGRPPPTAAERQELDRLLGGCGVASGGRGAGRETAILDDEEQPTVGGGPHLGVYPGHRPGLSRHCSCRQGYREPCGVPNGGYYRPEGTLERRRLAYGGYEGSPQGYAEASMEKRRLCRSLSEGLYPYPPEMGKPATGDFGYRAPGYREVVILEDPGLPALYPCPACEEKLALPTAALYGLRLEREAGEGWASEAGKPLLHPVRPGHPLPLLLPACGHHHAPMPDYSCLKPPKAGEEGHEGCSYTMCPEGRYGHPGYPALVTYSYGGAVPSYCPAYGRVPHSCGSPGEGRGYPSPGAHSPRAGSISPGSPPYPQSRKLSYEIPTEEGGDRYPLPGHLASAGPLASAESLEPVSWREGPSGHSTLPRSPRDAPCSASSELSGPSTPLHTSSPVQGKESTRRQDTRSPTSAPTQRLSPGEALPPVSQAGTGKAPELPSGSGPEPLAPSPVSPTFPPSSPSDWPQERSPGGHSDGASPRSPVPTTLPGLRHAPWQGPRGPPDSPDGSPLTPVPSQMPWLVASPEPPQSSPTPAFPLAASYDTNGLSQPPLPEKRHLPGPGQQPGPWGPEQASSPARGISHHVTFAPLLSDNVPQTPEPPTQESQSNVKFVQDTSKFWYKPHLSRDQAIALLKDKDPGAFLIRDSHSFQGAYGLALKVATPPPSAQPWKGDPVEQLVRHFLIETGPKGVKIKGCPSEPYFGSLSALVSQHSISPISLPCCLRIPSKDPLEETPEAPVPTNMSTAADLLRQGAACSVLYLTSVETESLTGPQAVARASSAALSCSPRPTPAVVHFKVSAQGITLTDNQRKLFFRRHYPVNSITFSSTDPQDRRWTNPDGTTSKIFGFVAKKPGSPWENVCHLFAELDPDQPAGAIVTFITKVLLGQRK

The next lines start with the molecule.

Molecule: talin-1 (from UniProt Q9Y490 1-2541)
- binding [1]: no binding

Molecule: focal adhesion kinase (FAK) (from UniProt Q05397 1-1052) (enzyme)
- binding [2]: no binding
- binding [1]: binds weakly
